Record: PubChem BioAssay AID1259308 (NCATS, 2017)
In all, the deposit lists about 59,000 reagents; shown is an unselected part. About 1,510 of all reagents (2.6%) were called active. 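Calls use total luciferase alone and ignore viability, so some active siRNAs may act by altering cell number.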 A number with no mark means an inactive call. The numbers tell different reagents against one gene apart.

Purpose: 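Candidate targets for better recombinant protein yield in mammalian cells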 (primary screen)
System: human HEK293 embryonic kidney cells stably expressing firefly luciferase (HEK-CMV-Luc2-Hygro)
Reagent: single siRNA against human genes, 0.8 pmol siRNA per well
Timing: 72 h
Read-out: 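Luciferase light (ONE-Glo) measured on one replicate plate set and viability (CellTiter-Glo) on the other, scaled to a negative control siRNA, with robust z-scores and luciferase per cell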
Reading the numbers: total luciferase, z-score and total luciferase, % of control: higher = more reporter protein produced; luciferase per cell, z-score: higher = more reporter output per viable cell; viable cells, % of control: higher = more viable cells
Call rule: 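An siRNA counts as active if its total luciferase robust z-score exceeds 3; genes with two or more such siRNAs out of three were retested with fresh siRNAs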
Calls: active = raised luciferase; inactive = no rise

| gene symbol | reagent | total luciferase, z-score | total luciferase, % of control | luciferase per cell, z-score | viable cells, % of control |
| --- | --- | --- | --- | --- | --- |
| EVX1 (even-skipped homeobox 1) | 1 | -0.195 | 78 | -0.611 | 102 |
| EVX1 (even-skipped homeobox 1) | 2 | -1.16 | 58.8 | -1.67 | 102 |
| EVX1 (even-skipped homeobox 1) | 3 | 0.143 | 84.7 | -0.138 | 98.2 |
| PPIG (peptidylprolyl isomerase G) | 1 | 1.46 | 111 | 1.16 | 91.2 |
| PPIG (peptidylprolyl isomerase G) | 2 | -0.355 | 74.8 | -0.392 | 92.7 |
| PPIG (peptidylprolyl isomerase G) | 3 | 0.0391 | 82.7 | -0.332 | 101 |
| CLDN23 (claudin 23) | 1 | 0.000572 | 81.9 | -0.107 | 94.1 |
| CLDN23 (claudin 23) | 2 | 1.93 | 120 | 1.52 | 90 |
| CLDN23 (claudin 23) | 3 | -0.862 | 64.7 | -1.11 | 96.8 |
| POU2F1 (POU class 2 homeobox 1) | 1 | 1.16 | 105 | 0.721 | 97.1 |
| POU2F1 (POU class 2 homeobox 1) | 2 | -1.06 | 60.9 | -1.57 | 103 |
| POU2F1 (POU class 2 homeobox 1) | 3 | 2.52 | 132 | 1.8 | 92 |
| KCNJ4 (potassium inwardly rectifying channel subfamily J member 4) | 1 | -0.937 | 63.3 | -0.964 | 91.1 |
| KCNJ4 (potassium inwardly rectifying channel subfamily J member 4) | 2 | -1.23 | 57.4 | -0.837 | 79.9 |
| KCNJ4 (potassium inwardly rectifying channel subfamily J member 4) | 3 | 2.81 | 138 | 2.73 | 74.9 |
| PDPR (pyruvate dehydrogenase phosphatase regulatory subunit) | 1 | -0.164 | 78.6 | -0.164 | 91.7 |
| PDPR (pyruvate dehydrogenase phosphatase regulatory subunit) | 2 | -0.422 | 73.5 | 0.445 | 73.1 |
| PDPR (pyruvate dehydrogenase phosphatase regulatory subunit) | 3 | -1.37 | 54.6 | -1.16 | 82.8 |

Continued, starting with the last 3 of the part before.
| gene symbol | reagent | total luciferase, z-score | total luciferase, % of control | luciferase per cell, z-score | viable cells, % of control |
| --- | --- | --- | --- | --- | --- |
| PDPR (pyruvate dehydrogenase phosphatase regulatory subunit) | 1 | -0.164 | 78.6 | -0.164 | 91.7 |
| PDPR (pyruvate dehydrogenase phosphatase regulatory subunit) | 2 | -0.422 | 73.5 | 0.445 | 73.1 |
| PDPR (pyruvate dehydrogenase phosphatase regulatory subunit) | 3 | -1.37 | 54.6 | -1.16 | 82.8 |
| SAR1B (secretion associated Ras related GTPase 1B) | 1 | -2.15 | 39 | -3.14 | 99.7 |
| SAR1B (secretion associated Ras related GTPase 1B) | 2 | -0.534 | 71.3 | -1.01 | 104 |
| SAR1B (secretion associated Ras related GTPase 1B) | 3 | 0.703 | 95.9 | 0.0663 | 105 |
| TOMM5 (translocase of outer mitochondrial membrane 5) | 1 | 0.729 | 96.4 | 1.22 | 78.1 |
| TOMM5 (translocase of outer mitochondrial membrane 5) | 2 | -0.0375 | 81.1 | -0.0273 | 91.3 |
| TOMM5 (translocase of outer mitochondrial membrane 5) | 3 | 0.452 | 90.9 | 0.287 | 94.1 |
| HCG9 (HLA complex group 9) | 1 | 0.21 | 86.1 | -0.104 | 98.8 |
| HCG9 (HLA complex group 9) | 2 | -0.305 | 75.8 | 1.78 | 53 |
| HCG9 (HLA complex group 9) | 3 | -0.716 | 67.6 | -1.75 | 120 |
| DNAH1 (dynein axonemal heavy chain 1) | 1 | -1.21 | 57.8 | -0.755 | 78.8 |
| DNAH1 (dynein axonemal heavy chain 1) | 2 | -3.67 | 8.88 | -8.21 | 86.1 |
| DNAH1 (dynein axonemal heavy chain 1) | 3 | -0.17 | 78.5 | 0.133 | 84.7 |
| NXPH2 (neurexophilin 2) | 1 | -0.573 | 70.5 | -1.04 | 104 |
| NXPH2 (neurexophilin 2) | 2 | 1.12 | 104 | 0.711 | 96.6 |
| NXPH2 (neurexophilin 2) | 3 | 0.116 | 84.2 | 0.262 | 87.8 |
| ZFY (zinc finger protein Y-linked) | 1 | 0.911 | 100 | 0.514 | 97.6 |
| ZFY (zinc finger protein Y-linked) | 2 | 0.835 | 98.5 | 1.18 | 80.7 |
| ZFY (zinc finger protein Y-linked) | 3 | -0.226 | 77.4 | -0.376 | 95.5 |
| C12orf57 (chromosome 12 open reading frame 57) | 1 | 0.296 | 87.8 | 0.274 | 91.3 |
| C12orf57 (chromosome 12 open reading frame 57) | 2 | 0.157 | 85 | 0.473 | 83.9 |
| C12orf57 (chromosome 12 open reading frame 57) | 3 | -1.19 | 58.3 | -0.639 | 77.1 |
